Laboratory results taken from publication PMC3695765.
No constants are given. Whether binding was seen depends on the method and setting. Some binding calls cover weakened binding; strength is not graded here. Tags and fused reporters may be left off the sequences shown.

Sequences of proteins named here, by UniProt entry; tags and fusion partners are left off. A change or cut given only in a name is not applied to a line headed by its entry.
UniProt P68400: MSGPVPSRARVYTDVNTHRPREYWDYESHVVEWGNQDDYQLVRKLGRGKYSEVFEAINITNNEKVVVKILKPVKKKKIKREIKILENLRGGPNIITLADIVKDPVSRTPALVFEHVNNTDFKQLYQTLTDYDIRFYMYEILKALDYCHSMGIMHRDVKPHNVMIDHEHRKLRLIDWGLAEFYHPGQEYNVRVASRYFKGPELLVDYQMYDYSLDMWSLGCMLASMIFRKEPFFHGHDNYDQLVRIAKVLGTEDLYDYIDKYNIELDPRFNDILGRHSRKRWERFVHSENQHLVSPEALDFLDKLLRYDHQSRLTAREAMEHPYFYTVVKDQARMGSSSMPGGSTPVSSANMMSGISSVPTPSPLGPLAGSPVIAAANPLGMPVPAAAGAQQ

How the values were obtained:
Assay in all cases: pull-down; purified GST-occludin fusion proteins (2 μg) incubated with purified CK2 (0,25 μl), 1 h at 4°C, in 50 mM Tris/HCl pH 8.0, 50 mM KCl, 0.04% Triton X-100, 4 mM MgCl2; GSH-agarose beads; blot with anti-CK2α; both purified
[1] = target: T1, GST-Occ263-389, membrane proximal part of the occludin cytoplasmic domain (human) (UniProt Q16625)
T1 sequence: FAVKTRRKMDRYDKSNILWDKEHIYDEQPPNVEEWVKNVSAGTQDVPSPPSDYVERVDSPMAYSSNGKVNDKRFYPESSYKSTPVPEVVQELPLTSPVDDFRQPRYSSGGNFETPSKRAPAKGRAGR

[2] = target: T2, GST-Occ381-523, distal part of the occludin C-terminal cytoplasmic domain (human) (UniProt Q16625)
T2 sequence: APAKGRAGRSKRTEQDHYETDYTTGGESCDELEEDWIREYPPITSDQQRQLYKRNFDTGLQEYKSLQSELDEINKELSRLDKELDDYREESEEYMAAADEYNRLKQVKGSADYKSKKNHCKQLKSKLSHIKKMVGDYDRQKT

[3] = target: T3, GST-OccC, GST fusion of the C-terminal cytoplasmic tail of human occludin (amino acids 263-523) (human) (UniProt Q16625)
T3 sequence: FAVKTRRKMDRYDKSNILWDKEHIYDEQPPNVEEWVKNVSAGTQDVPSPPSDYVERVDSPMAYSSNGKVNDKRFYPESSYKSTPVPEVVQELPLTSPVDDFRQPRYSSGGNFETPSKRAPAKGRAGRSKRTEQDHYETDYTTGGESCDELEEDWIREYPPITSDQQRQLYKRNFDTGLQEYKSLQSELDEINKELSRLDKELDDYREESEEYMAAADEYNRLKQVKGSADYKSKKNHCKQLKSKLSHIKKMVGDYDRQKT

## purified recombinant CK2 (from UniProt P68400 1-391; P67870 1-215) (complex)
[1]
  binding: binds
[2]
  binding: no binding
[3]
  binding: binds
